Reference: the supplement of paper PMC8007513
Some of the results follow. Many values rest on one well or one pass, so single values are uncertain.

What follows are molecules tested on Saccharomyces cerevisiae BY4743 (assay: growth (OD600) relative to untreated control; higher = less growth inhibition). Details: compound concentration: 133 uM; 20 h.
Protocol: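 NMCCC compounds (133 uM, no IPBC) tested alone against Saccharomyces cerevisiae BY4743 in YPD, 96-well plates, starting OD600 ~0.1. Growth was read as OD600 at 20 h and expressed as % of the untreated control. Single pass.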
`CN(CC1=C(C)ON=C1C)C/2=C(\Cl)C(=O)N(/N=C2)C3=CC=C(C=N3)C(F)(F)F` gave a growth of 89.5%. Molecule `COC(=O)c1cc(S(=O)(=O)Nc2cc(C)cc(C)c2)cn1C` has a growth of 105%. In the case of `Cc1ccc2cc(CN(CC(C)C)C(=O)c3ccco3)c(O)nc2c1`, the growth is reported as 109%. In the case of `C[N]1N=C(C)C\2=C1C(=O)N(CC(=O)NCC3=CC=CC=C3C)\C=C2`, the growth is reported as 88.8%. Molecule `Cc1nc(-c2cccs2)c(CCC(=O)N2CCCC2)s1` has a growth of 106%. In the case of `CC(C)CNC(=O)CN1\N=N/C2=C(C1=O)C3=C(CC(CC3)C(C)(C)C)S2` (stereo not given), the growth is reported as 109%. For `CNc1nc(-c2ccc(OC(F)F)c(OC)c2)cs1`, the growth was 106%. Molecule `O=C(CCn1c(=O)oc2ccccc21)OC1CCCCC1=O` (stereo not given) has a growth of 103%. Molecule `CCCc1nnc(CSc2nnc(-c3ccc(NC(C)=O)cc3)o2)o1` has a growth of 108%. Work on `Cc1cc(N)n(S(=O)(=O)c2cn(C)nc2C)n1` yielded a growth of 108%. For `COC1=CC(=CC(=C1OC)Br)C\2\C(=C(\N)O\C3=C2C(=O)CCC3)C#N` (stereo not given), the growth was 91%. With `COc1ccc(CNC(=O)c2ccc(NS(=O)(=O)c3ccc(C(C)O)cc3)cc2)cc1OC` (stereo not given) the growth was 103%. `COC(=O)CCCC(=O)NC(c1ccc(Cl)cc1)c1nnc(-c2ccccc2)o1` (stereo not given) showed a growth of 106%. Molecule `CCc1nnc(NC(=O)CSc2nccn2Cc2ccco2)s1` has a growth of 101%. In the case of `COC1=CC=C(CCC2CCN(CC2)CN3\C=C(Br)/C=C\C3=O)C=C1`, the growth is reported as 89.7%. `Cc1ccc(-n2nc(C)c(C(=O)NCC(=O)NCc3ccco3)n2)c(C)c1` was tested, and the growth was 106%. In the case of `Nc1cn(-c2ccccc2)nc1-c1ccc(Cl)cc1`, the growth is reported as 104%. `CCOC(=O)N1CCN(C(=O)c2cc(-c3ccc(CC)cc3)[nH]n2)CC1` was tested, and the growth was 73.8%. With `FC(F)(F)C/1=C/N(CC/2=C/C(=O)N/3\C=C(Br)/C=C\C3=N2)C(=O)/C=C1` the growth was 103%. `CCN1CCC(N(Cc2cccs2)C(=O)Nc2cccc(C)c2C)CC1` showed a growth of 103%. In the case of `O=C(CNC(=O)c1ccc2ncsc2c1)OCc1ccccc1`, the growth is reported as 89.7%. `CSc1nc(C)c(CC(=O)N2CCN(S(=O)(=O)c3ccccc3C(F)(F)F)CC2)s1` gave a growth of 107%. `Cc1ccc(CNc2ccc(-n3nc(C)cc3C)nn2)cc1` showed a growth of 105%. Molecule `COC(=O)C(C)(C)NC(=O)CCN1\C=N/C2=C(C1=O)C(=CS2)C3=CC=C(C)C=C3` has a growth of 109%. With `CCC(C)NC(=O)c1c(-c2ccccc2)nnc2ccc(C)cc12` (stereo not given) the growth was 112%. In the case of `CNS(=O)(=O)c1cc(NC(=O)c2cc3ccccc3cc2O)ccc1C`, the growth is reported as 109%. `CCOc1ccc(NC(=O)c2cc(CC)c(C)s2)cc1OC` gave a growth of 105%. `CCOC(=O)c1cc(Oc2ccc(C#N)cn2)cc(C(=O)OCC)c1` gave a growth of 83.7%. `CN(CC(=O)Nc1cccc(Cl)c1)S(=O)(=O)c1ccc(-c2ccc(O)nn2)s1` was tested, and the growth was 107%. `CCOC(=O)c1ccc(NC(=O)NC2CC(=O)N(C3CCCC3)C2)cc1` (stereo not given) gave a growth of 96.7%. `CCCNC(=O)Cc1c(C)nc2cc(-c3ccccc3)nn2c1C` was tested, and the growth was 102%. For `O=C(CSc1ccc(-c2cccs2)nn1)NC1CCCCC1`, the growth was 91.1%. `Cc1nc(C)c(C#N)c(SCc2nc(O)c3cccc(C)c3n2)n1` gave a growth of 109%. In the case of `Cc1ccc(NC(=O)CCc2ccc(C)o2)c(Br)c1`, the growth is reported as 89.8%. For `CCn1c(SCC(=O)N(C)CCOc2ccc(Br)cc2)nnc1C1CC1`, the growth was 104%. `Cc1cc(C(=O)N2CCN(C(=O)c3cccs3)CC2)[nH]n1` gave a growth of 104%. For `COc1ccc(CNS(=O)(=O)c2cc3nc(O)c(O)nc3cc2C)cc1`, the growth was 100%. Work on `CNS(=O)(=O)Cc1ccc(CNC(=O)Nc2ccccc2F)cc1` yielded a growth of 90.1%. `CC(C)CCn1c(SC(C)C)nc2c1c(=O)[nH]c(=O)n2C` was tested, and the growth was 97.1%. For `CC1Cc2ccccc2N1C(=O)COC(=O)c1cc(S(=O)(=O)N(C)C)ccc1Cl` (stereo not given), the growth was 98%.
